Not every detail of the peptide structures is certain; ends, links or a residue may be inferred. Where no end group is shown, it is not given here.
Assay: Peptide content after dispersion and nebulization (vibrating mesh nebulizers)
Assay type: physicochemical
Settings: dispersed in phosphate buffered saline or normal saline; nebulized by two vibrating mesh nebulizers (Aeroneb Pro, EZ Breathe); FIG. 2

## FTTFTVT [CSP-7, FTTFTVT]
  peptide content retained following nebulization: significant amount
